No constants are given. Whether binding was seen depends on the method and setting. Some results given as binding are weak or reduced against the parent protein; the word gives no strength.
Target: T1, MICU1 (mouse brain) (mouse (endogenous in brain)) (UniProt Q8VCX5)
T1 sequence: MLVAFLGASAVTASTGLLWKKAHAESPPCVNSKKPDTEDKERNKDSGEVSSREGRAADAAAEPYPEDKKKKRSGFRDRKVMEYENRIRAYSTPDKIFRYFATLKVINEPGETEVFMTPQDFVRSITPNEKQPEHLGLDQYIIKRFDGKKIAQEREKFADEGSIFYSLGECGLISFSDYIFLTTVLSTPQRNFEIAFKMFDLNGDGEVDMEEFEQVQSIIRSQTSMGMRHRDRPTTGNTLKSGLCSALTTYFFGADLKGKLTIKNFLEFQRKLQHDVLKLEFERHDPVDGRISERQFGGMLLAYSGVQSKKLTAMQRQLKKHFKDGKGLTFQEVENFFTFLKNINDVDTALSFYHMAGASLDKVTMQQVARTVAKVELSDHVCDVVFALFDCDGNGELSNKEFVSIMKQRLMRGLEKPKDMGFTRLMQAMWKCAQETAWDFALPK
Test: non-reducing SDS-PAGE and immunoblot

binding: binds
B1: MICU3 (mouse brain) (protein, UniProt Q9CTY5 7-523)
chain: FLWPPPRLSPALAPQQPFLSPWGRPAGTAPGMSGRPFSCREEDEGAVAEAAWRRRRWGELSIAAAAGGGLVGLVCYQLYGDPRADPSELAAPELEDPPRGRGLLPIPVAAAKETVATGRAITEDLDLYATSRERRFRLFASIECEGQLFMTPYDFILAVTTDEPKFAKTWKSLSKQELSQMLSETPPVWKGSSKLFRNLKERGVISYTEYLFLLCILTKPHAGFRIAFNMFDTDGNEMVDKKEFLVLQEIFRKKNEKRETKGDEEKRAMLRLQLYGYHSPTNSVLKTDAGELVSRSYWDTLRRSTSQALFSDLAERADDITSLVADTTLLVHFFGKKGKAELNFEDFYRFMDNLQTEVLEIEFLSYSNGMNTISEEDFAHILLRYTNVENTSVFLENVRYSISEEKGITFDEFRSFFQFLNNLEDFAIALNMYNFASRSIGQDEFKRAVYVATGLKLSPHLVNTVFKIFDVDKDDQLSYKEFIGIMKDRLHRGFRGYKTVQKYPTFKSCLKKELHSR
